Source: the supplement of paper PMC8728848
Some of the results follow.

Legend:
Test in all cases: glycan array binding signal (z-score within array); higher = stronger binding
Details in all cases: glycan notation: IUPAC condensed, linker removed
[1] = target: Gal(b1-3)GlcNAc(b1-2)Man(a1-3)[Gal(b1-3)GlcNAc(b1-2)Man(a1-6)]Man(b1-4)GlcNAc(b1-4)[Fuc(a1-6)]GlcNAc
Procedure, shortened: (§1)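 Glycan array data came from 3228 arrays in the Consortium for Functional Glycomics database, and only arrays with an available protein sequence were kept. Glycan names were put into IUPAC-condensed notation, and columns mapping to the same glycan were averaged. The binding signal is a within-array Z-score, averaged across arrays of one protein sequence run at different concentrations or buffers and across linkers. A negative Z-score can be read as non-binding.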

[2] = target: Gal(b1-3)GlcNAc(b1-2)Man(a1-3)[GlcNAc(b1-4)][Gal(b1-3)GlcNAc(b1-2)Man(a1-6)]Man(b1-4)GlcNAc(b1-4)GlcNAc
Procedure, shortened: as §1

[3] = target: Gal(b1-3)GlcNAc(b1-2)[Gal(b1-3)GlcNAc(b1-6)]Man(a1-6)[Gal(b1-3)GlcNAc(b1-2)Man(a1-3)]Man(b1-4)GlcNAc(b1-4)GlcNAc
Procedure, shortened: as §1

[4] = target: Gal(b1-3)GlcNAc(b1-3)Gal(b1-3)GlcNAc
Procedure, shortened: as §1

[5] = target: Gal(b1-3)GlcNAc(b1-3)Gal(b1-4)Glc
Procedure, shortened: as §1

[6] = target: Gal(b1-3)GlcNAc(b1-3)Gal(b1-4)GlcNAc
Procedure, shortened: as §1

[7] = target: Gal(b1-3)GlcNAc(b1-3)Gal(b1-4)GlcNAc(b1-2)Man(a1-3)[Gal(b1-3)GlcNAc(b1-3)Gal(b1-4)GlcNAc(b1-2)Man(a1-6)]Man(b1-4)GlcNAc(b1-4)GlcNAc
Procedure, shortened: as §1

[8] = target: Gal(b1-3)GlcNAc(b1-3)Gal(b1-4)GlcNAc(b1-2)[Gal(b1-3)GlcNAc(b1-3)Gal(b1-4)GlcNAc(b1-6)]Man(a1-6)[Gal(b1-3)GlcNAc(b1-3)Gal(b1-4)GlcNAc(b1-2)Man(a1-3)]Man(b1-4)GlcNAc(b1-4)[Fuc(a1-6)]GlcNAc
Procedure, shortened: as §1

[9] = target: Gal(b1-3)GlcNAc(b1-3)Gal(b1-4)GlcNAc(b1-3)Gal(b1-4)GlcNAc(b1-2)[Gal(b1-3)GlcNAc(b1-3)Gal(b1-4)GlcNAc(b1-3)Gal(b1-4)GlcNAc(b1-6)]Man(a1-6)[Gal(b1-3)GlcNAc(b1-3)Gal(b1-4)GlcNAc(b1-3)Gal(b1-4)GlcNAc(b1-2)Man(a1-3)]Man(b1-4)GlcNAc(b1-4)[Fuc(a1-6)]GlcNAc
Procedure, shortened: as §1

[10] = target: Gal(b1-3)GlcNAc(b1-3)Gal(b1-4)GlcNAc(b1-6)[Gal(b1-3)GlcNAc(b1-3)]Gal(b1-4)Glc
Procedure, shortened: as §1

[11] = target: Gal(b1-3)GlcNAc(b1-3)Gal(b1-4)[Fuc(a1-3)]GlcNAc
Procedure, shortened: as §1

[12] = target: Gal(b1-3)GlcNAc(b1-3)Gal(b1-4)[Fuc(a1-3)]GlcNAc(b1-6)[Gal(b1-3)GlcNAc(b1-3)]Gal(b1-4)Glc
Procedure, shortened: as §1

[13] = target: Gal(b1-3)GlcNAc(b1-3)GalNAc
Procedure, shortened: as §1

[14] = target: Gal(b1-3)GlcNAc(b1-6)Gal(b1-4)GlcNAc
Procedure, shortened: as §1

[15] = target: Gal(b1-3)GlcNAc(b1-6)GalNAc
Procedure, shortened: as §1

[16] = target: Gal(b1-3)GlcNAc(b1-6)[Gal(b1-3)]GalNAc
Procedure, shortened: as §1

Gal(b1-3)GlcNAc6S = target: Gal(b1-3)GlcNAc6S
Procedure, shortened: as §1

[17] = target: Gal(b1-3)[Fuc(a1-4)]GlcNAc
Procedure, shortened: as §1

[18] = target: Gal(b1-3)[Fuc(a1-4)]GlcNAc(b1-2)Man
Procedure, shortened: as §1

[19] = target: Gal(b1-3)[Fuc(a1-4)]GlcNAc(b1-2)Man(a1-3)[Gal(b1-3)[Fuc(a1-4)]GlcNAc(b1-2)Man(a1-6)]Man(b1-4)GlcNAc(b1-4)[Fuc(a1-6)]GlcNAc
Procedure, shortened: as §1

[20] = target: Gal(b1-3)[Fuc(a1-4)]GlcNAc(b1-3)Gal(b1-3)[Fuc(a1-4)]GlcNAc
Procedure, shortened: as §1

[21] = target: Gal(b1-3)[Fuc(a1-4)]GlcNAc(b1-3)Gal(b1-4)[Fuc(a1-3)]GlcNAc
Procedure, shortened: as §1

[22] = target: Gal(b1-3)[Fuc(a1-4)]GlcNAc(b1-6)GalNAc
Procedure, shortened: as §1

[23] = target: Gal(b1-3)[GlcNAc(b1-6)]GalNAc
Procedure, shortened: as §1

[24] = target: Gal(b1-3)[Neu5Ac(a2-6)]GalNAc
Procedure, shortened: as §1

[25] = target: Gal(b1-3)[Neu5Ac(a2-6)]GlcNAc(b1-4)Gal(b1-4)Glc
Procedure, shortened: as §1

[26] = target: Gal(b1-3)[Neu5Ac(b2-6)]GalNAc
Procedure, shortened: as §1

Gal(b1-4)Gal = target: Gal(b1-4)Gal
Procedure, shortened: as §1

[27] = target: Gal(b1-4)GalNAc(a1-3)[Fuc(a1-2)]Gal(b1-4)GlcNAc
Procedure, shortened: as §1

[28] = target: Gal(b1-4)GalNAc(b1-3)[Fuc(a1-2)]Gal(b1-4)GlcNAc
Procedure, shortened: as §1

Gal(b1-4)Glc = target: Gal(b1-4)Glc
Procedure, shortened: as §1

Gal(b1-4)Glc6S = target: Gal(b1-4)Glc6S
Procedure, shortened: as §1

Gal(b1-4)GlcNAc = target: Gal(b1-4)GlcNAc
Procedure, shortened: as §1

[29] = target: Gal(b1-4)GlcNAc(a1-6)Gal(b1-4)GlcNAc
Procedure, shortened: as §1

Gal(b1-4)GlcNAc(b1-2)Man = target: Gal(b1-4)GlcNAc(b1-2)Man
Procedure, shortened: as §1

[30] = target: Gal(b1-4)GlcNAc(b1-2)Man(a1-3)Man(b1-4)GlcNAc(b1-4)GlcNAc
Procedure, shortened: as §1

[31] = target: Gal(b1-4)GlcNAc(b1-2)Man(a1-3)[Gal(b1-4)GlcNAc(b1-2)Man(a1-6)]Man(b1-4)GlcNAc(b1-4)GlcNAc
Procedure, shortened: as §1

[32] = target: Gal(b1-4)GlcNAc(b1-2)Man(a1-3)[Gal(b1-4)GlcNAc(b1-2)Man(a1-6)]Man(b1-4)GlcNAc(b1-4)[Fuc(a1-6)]GlcNAc
Procedure, shortened: as §1

[33] = target: Gal(b1-4)GlcNAc(b1-2)Man(a1-3)[Gal(b1-4)GlcNAc(b1-2)Man(a1-6)][Gal(b1-4)GlcNAc(b1-4)]Man(b1-4)GlcNAc(b1-4)[Fuc(a1-6)]GlcNAc
Procedure, shortened: as §1

[34] = target: Gal(b1-4)GlcNAc(b1-2)Man(a1-3)[Gal(b1-4)GlcNAc(b1-2)Man(a1-6)][GlcNAc(b1-4)]Man(b1-4)GlcNAc(b1-4)[Fuc(a1-6)]GlcNAc
Procedure, shortened: as §1

[35] = target: Gal(b1-4)GlcNAc(b1-2)Man(a1-3)[GlcNAc(b1-2)Man(a1-6)]Man(b1-4)GlcNAc(b1-4)GlcNAc
Procedure, shortened: as §1

[36] = target: Gal(b1-4)GlcNAc(b1-2)Man(a1-3)[GlcNAc(b1-4)][Gal(b1-4)GlcNAc(b1-2)Man(a1-6)]Man(b1-4)GlcNAc(b1-4)GlcNAc
Procedure, shortened: as §1

[37] = target: Gal(b1-4)GlcNAc(b1-2)Man(a1-3)[Man(a1-6)]Man(b1-4)GlcNAc(b1-4)GlcNAc
Procedure, shortened: as §1

[38] = target: Gal(b1-4)GlcNAc(b1-2)Man(a1-6)Man(b1-4)GlcNAc(b1-4)GlcNAc
Procedure, shortened: as §1

[39] = target: Gal(b1-4)GlcNAc(b1-2)Man(a1-6)[GlcNAc(b1-2)Man(a1-3)]Man(b1-4)GlcNAc(b1-4)GlcNAc
Procedure, shortened: as §1

B1: PX9961W-pdi-543-27-543 (Parabacteroides distasonis) (protein)
chain: EGNATTTSYFLNDQQAIDAIDGLYERFHQEGCYGRELFWEQGAACDIVWGRTRGYNSLATLAYTGDESPLRDVFSRMYSTMSRANWIIQELVKKEKGTTLTAVEKRSLGEAYFSRGWAHYLIAYRYGTDKQGVPFVRYEDFPDDYDNSIPPQQATVMDNYKLIIEDMDKAIAYLPIFESYDADNRGRAHQAAAVAFKAKTYAYWATWDATQWNNVIEMVNQLENNYNRDLAPTFAELFSSDLKDYWNAEYLWTIPSIGGALPGGTEFPGIILENKGWGKYNGWGQMKPSYDIYEEMAKDGKGNDRLVRSILEYNQEFPFFGETRKFWSTSDLEAGFMINKYMDAFKYSDPVGEGAVSANGDWPTVRVNFPIIRFAEMLLFRAEAYLMTGQADKATADINRIRLRSNLTPLTGTATMKDLYHERRCELAFEFTDHLFDLKRWNRSSNADIKTLADKELNAHPRIRRYEDRANPESAFTIIGYEDYTNKNAYQAHMMVFPYPSEEITKSNGQLKQNEGY
glycan array binding signal (z-score) [1]: 0.67
glycan array binding signal (z-score) [2]: 0.771
glycan array binding signal (z-score) [3]: 0.012
glycan array binding signal (z-score) [4]: -0.617
glycan array binding signal (z-score) [5]: -0.994
glycan array binding signal (z-score) [6]: -0.787
glycan array binding signal (z-score) [7]: 0.778
glycan array binding signal (z-score) [8]: 3.68
glycan array binding signal (z-score) [9]: 1.82
glycan array binding signal (z-score) [10]: 2.47
glycan array binding signal (z-score) [11]: -0.843
glycan array binding signal (z-score) [12]: -1.28
glycan array binding signal (z-score) [13]: -1.05
glycan array binding signal (z-score) [14]: -0.821
glycan array binding signal (z-score) [15]: -0.697
glycan array binding signal (z-score) [16]: 0.458
glycan array binding signal (z-score) (Gal(b1-3)GlcNAc6S): -0.793
glycan array binding signal (z-score) [17]: -0.015
glycan array binding signal (z-score) [18]: 0.017
glycan array binding signal (z-score) [19]: 0.073
glycan array binding signal (z-score) [20]: -0.102
glycan array binding signal (z-score) [21]: 0.282
glycan array binding signal (z-score) [22]: 0.297
glycan array binding signal (z-score) [23]: 0.083
glycan array binding signal (z-score) [24]: -0.081
glycan array binding signal (z-score) [25]: 0.508
glycan array binding signal (z-score) [26]: -0.599
glycan array binding signal (z-score) (Gal(b1-4)Gal): -1.05
glycan array binding signal (z-score) [27]: -0.928
glycan array binding signal (z-score) [28]: -0.73
glycan array binding signal (z-score) (Gal(b1-4)Glc): -0.032
glycan array binding signal (z-score) (Gal(b1-4)Glc6S): -1.04
glycan array binding signal (z-score) (Gal(b1-4)GlcNAc): 0.002
glycan array binding signal (z-score) [29]: -1.03
glycan array binding signal (z-score) (Gal(b1-4)GlcNAc(b1-2)Man): 0.965
glycan array binding signal (z-score) [30]: -0.759
glycan array binding signal (z-score) [31]: 0.803
glycan array binding signal (z-score) [32]: -0.2
glycan array binding signal (z-score) [33]: -0.642
glycan array binding signal (z-score) [34]: -0.894
glycan array binding signal (z-score) [35]: 0.169
glycan array binding signal (z-score) [36]: -0.751
glycan array binding signal (z-score) [37]: -0.027
glycan array binding signal (z-score) [38]: 1.08
glycan array binding signal (z-score) [39]: 0.677
